No constants are given. Whether binding was seen depends on the method and setting. In cells and extracts the contact can be indirect. Some entries that bind do so weakly or less than the wild type.
Target: S100A10 (mouse (endogenous in primary murine MSC)) (UniProt P08207)
Experiment: co-IP; MSC lysed in RIPA buffer (50 mM Tris HCl pH 7.4, 150 mM NaCl, 1% Triton X-100, 1% Na DOC, 0.1% SDS, 1 mM EDTA); 2 ug antibody against S100A10 for 3 h at 4 C, then Dynabeads Protein G overnight at 4 C; washes with ice cold RIPA; SDS-PAGE and immunoblot

Protein sequences, listed by entry. Tags and fused reporters are not part of them.
UniProt P08207: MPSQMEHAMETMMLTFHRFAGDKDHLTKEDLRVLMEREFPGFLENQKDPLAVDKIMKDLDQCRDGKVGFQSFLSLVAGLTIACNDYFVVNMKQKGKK
UniProt P07356: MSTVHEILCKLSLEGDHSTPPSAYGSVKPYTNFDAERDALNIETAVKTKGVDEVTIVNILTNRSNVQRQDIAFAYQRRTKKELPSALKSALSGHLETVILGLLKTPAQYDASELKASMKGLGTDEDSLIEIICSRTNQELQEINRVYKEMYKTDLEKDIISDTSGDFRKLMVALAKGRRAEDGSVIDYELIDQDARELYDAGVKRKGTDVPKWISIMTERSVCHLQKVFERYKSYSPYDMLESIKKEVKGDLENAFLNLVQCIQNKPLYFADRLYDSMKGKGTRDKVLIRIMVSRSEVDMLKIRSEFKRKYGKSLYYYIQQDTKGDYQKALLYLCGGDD

binding: binds
Substance: annexin A2 (from UniProt P07356 1-339)

From article PMC11579293
